Test results: EP0278781B1, “Peptides with laminin activity” (THE UNITED STATES OF AMERICA as represented by the …, priority 1987, dated 1993)
Part of at least one peptide drawing is inferred or uncertain, most often the ends. Ends that are not written are not given here.

Columns and labels:
[1] = tested on: B16 F10 melanoma cells; test: In vitro tumor cell invasion of basement membrane; format: cell-based, murine
[2] = tested on: B16 F10 melanoma cells; test: Inhibition of lung metastases in vivo; design: species or system C57B1/6 mice; details: for inhibition of lung metastases formation: preincubated with cells, tail vein, two weeks after injection
[3] = tested on: B16 F10 cells; test: Inhibition of chemotaxis (peptide with cells in upper compartment of Boyden chamber); format: cell-based, murine
[4] = tested on: laminin receptor (Mr=67,000); test: Elution of laminin receptor from laminin affinity column; format: binding, murine; details: NG108-15 cell extract on column; peptide 11 or 12 at 1 mg/ml in column buffer
[5] = tested on: HT1080 cells; test: Cell adhesion (attachment) assay, HT1080 cells; format: cell-based, human; details: peptide absorbed to plastic / coated on a dish
[6] = tested on: B16F10 cells; test: Chemotaxis assay (Boyden chamber), peptide as chemoattractant; format: cell-based, murine; details: peptide in lower compartment of the Boyden chamber
[7] = tested on: HT1080 or CHO cells; test: Competition of peptide with laminin for cell attachment (laminin-coated dishes); format: cell-based; details: added to laminin-coated dishes along with the cells
[8] = tested on: HT1080 or CHO cells; test: Cell attachment assay, series of smaller peptides (Table III, Figure 8); format: cell-based; details: cell line not stated
[9] = tested on: endothelial cells; test: Invasion of endothelial cells through reconstituted basement membrane; format: cell-based
[10] = tested on: Human skin endothelial cells; test: Capillary endothelial cell tube formation on matrigel; format: cell-based

| Substance | inhibition of invasion ([1]; 50 micrograms/ml) | inhibition of invasion ([1]; 100 micrograms/ml) | inhibition of lung metastases formation ([2]; 1 milligram per animal) | inhibition of lung metastases formation ([2]; 100 micrograms per animal) | inhibition of chemotaxis to fibronectin ([3]; chemoattractant fibronectin) | inhibition of the chemotactic response to laminin ([3]; chemoattractant laminin) | ability to elute the laminin receptor from a laminin affinity column [4] | ability to promote the attachment of HT1080 cells [5] | chemotactic activity (cell migration) [6] | chemotactic response relative to the maximum response observed with optimal levels of laminin [6] | ability to inhibit attachment to laminin substrates [7] | cell attachment [8] | inhibition of endothelial cell invasion through basement membrane [9] | inhibition of tumor cell invasion of a basement membrane in vitro [1] | formation of the tubules ([10]; 0.5 mg/ml, reconstituted basement membrane, 18 hours) | inhibition of formation of capillary-like structures ([10]; added to the media of cells plated on matrigel or included within the gel) | inhibition of tumor cell metastases ([2]; dose not stated) |
| --- | --- | --- | --- | --- | --- | --- | --- | --- | --- | --- | --- | --- | --- | --- | --- | --- | --- |
| CDPGYIGSR [peptide 11, Cys-Asp-Pro-Gly-Tyr-Ile-Gly-Ser-Arg] | approximately 50% | approximately 50% | significantly inhibited | slightly inhibit | Little or no inhibition | inhibited the chemotactic response of the cells to laminin | eluted a single major protein (Mr=67,000) | stimulate cell attachment in a dose-dependent fashion to the levelts obtained with laminin itself | chemoattractant | about 32% | suppressed the attachment of the cells to laminin |  |  |  |  |  |  |
| CDPGYIGSR-NH2 [peptide 11 amide] |  | approximately 80% | more active than peptide 11 | more active than peptide 11 |  |  |  |  |  |  |  |  |  |  |  |  |  |
| YIGSR-NH2 [YIGSR amide, tyrosine-isoleucine-glycine-serine-arginine-amide] |  |  |  |  |  |  | smallest active peptide |  | smallest active peptide |  |  | smallest active peptide | potent inhibitors | smallest active peptide | blocked | inhibited the endothelial cells from forming capillary-like structures |  |
| YIGSR [YIGSR, Tyr-Ile-Gly-Ser-Arg] |  |  |  |  |  |  | smallest active peptide |  | smallest active peptide |  |  | smallest active peptide |  |  |  |  | smallest active peptide |
